In PubChem BioAssay (Tox21):
All entries are inconclusive by the source's own rule. Clear calls are listed elsewhere. Unless noted, the call rests on the fitted dose curve; in most records, active means well fitted curve in the direction sought with a large enough effect in the repeat runs; inconclusive means weak or mixed curves; inactive means no such curve, though single readings can be large; an effect the other way counts as inactive or inconclusive.

The chains behind the UniProt entries cited, without tags or fusion partners.
UniProt Q92731, whole entry: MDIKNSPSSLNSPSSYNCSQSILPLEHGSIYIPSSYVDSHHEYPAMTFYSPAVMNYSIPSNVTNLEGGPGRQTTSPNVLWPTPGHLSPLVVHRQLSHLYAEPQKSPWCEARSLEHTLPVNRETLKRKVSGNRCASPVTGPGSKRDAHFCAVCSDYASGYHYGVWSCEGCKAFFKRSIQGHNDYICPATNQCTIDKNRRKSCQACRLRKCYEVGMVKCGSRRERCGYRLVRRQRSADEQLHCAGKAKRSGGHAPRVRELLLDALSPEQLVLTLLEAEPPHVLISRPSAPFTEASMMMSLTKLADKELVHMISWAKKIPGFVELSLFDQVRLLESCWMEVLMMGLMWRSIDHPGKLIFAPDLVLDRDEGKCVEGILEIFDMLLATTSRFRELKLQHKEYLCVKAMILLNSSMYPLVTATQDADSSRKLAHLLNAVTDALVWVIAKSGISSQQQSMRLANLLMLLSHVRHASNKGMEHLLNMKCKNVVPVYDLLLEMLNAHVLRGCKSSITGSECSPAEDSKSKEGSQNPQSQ
UniProt P06401, whole entry: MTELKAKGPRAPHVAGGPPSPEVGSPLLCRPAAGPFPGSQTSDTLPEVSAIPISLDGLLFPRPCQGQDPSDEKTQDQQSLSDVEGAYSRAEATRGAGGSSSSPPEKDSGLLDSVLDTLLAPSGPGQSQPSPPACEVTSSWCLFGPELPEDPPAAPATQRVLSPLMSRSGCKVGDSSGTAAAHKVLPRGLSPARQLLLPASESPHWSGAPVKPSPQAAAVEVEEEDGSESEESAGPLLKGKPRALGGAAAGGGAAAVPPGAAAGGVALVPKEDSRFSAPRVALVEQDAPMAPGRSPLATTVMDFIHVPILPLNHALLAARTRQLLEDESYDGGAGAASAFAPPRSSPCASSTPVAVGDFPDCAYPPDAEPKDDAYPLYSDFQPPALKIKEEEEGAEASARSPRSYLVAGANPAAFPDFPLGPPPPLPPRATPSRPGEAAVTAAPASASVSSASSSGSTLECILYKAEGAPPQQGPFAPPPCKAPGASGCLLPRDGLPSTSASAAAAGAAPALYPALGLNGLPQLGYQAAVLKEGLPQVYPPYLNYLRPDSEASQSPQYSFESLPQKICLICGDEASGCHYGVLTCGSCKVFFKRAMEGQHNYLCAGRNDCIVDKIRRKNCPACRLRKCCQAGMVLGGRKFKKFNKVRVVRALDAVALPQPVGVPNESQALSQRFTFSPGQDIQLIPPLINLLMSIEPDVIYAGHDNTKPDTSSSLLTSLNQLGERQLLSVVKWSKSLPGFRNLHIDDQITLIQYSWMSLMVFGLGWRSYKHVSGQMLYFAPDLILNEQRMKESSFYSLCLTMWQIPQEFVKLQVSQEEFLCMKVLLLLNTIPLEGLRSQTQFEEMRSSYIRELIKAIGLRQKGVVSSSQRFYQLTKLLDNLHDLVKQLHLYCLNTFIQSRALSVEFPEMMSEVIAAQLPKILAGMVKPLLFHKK

Legend:
[1] = target: Nuclear receptor ROR-gamma (Homo sapiens) (UniProt P51449); test: qHTS assay to identify small molecule antagonists of the retinoid-related orphan receptor gamma (ROR-gamma) signaling pathway (AID 1159521; further: potency means the concentration at half of the fitted maximal effect; nearly all actives have a fitted effect of over 50% in size); details: Tet-on RORgamma CHO cells, RORE-luciferase, 16 h
[2] = qHTS assay to identify small molecule agonists of the AP-1 signaling pathway (AID 1159526; calls by dose curve; further: on the % scale 0 is the no-effect control and ±100 the full control effect); details: ME-180 (cervical carcinoma) AP-1-bla reporter, beta-lactamase FRET ratio, 5 h; at 76.8 µM (top of the series) unless noted
[3] = qHTS assay to identify small molecule agonists of the RXR signaling pathway - cell viability counter screen (AID 1159529); details: RXR-alpha-bla HEK293T viability, CellTiter-Glo, 16 h; further: potency means the concentration at half of the fitted maximal effect; nearly all actives have a fitted effect of over 50% in size
Procedure, shortened: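 Counter screen: CellTiter-Glo luminescence. Cells: RXR-alpha-UAS-bla HEK 293T. Medium: 2% charcoal-stripped FBS. Treatment: 16 h, 37 C. Reagent incubation: 30 min, RT.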

[4] = qHTS assay to identify small molecule antagonists of the estrogen related receptor (ERR) signaling pathway from Tox21 library - cell viability counter screen (AID 1224834); details: ERR reporter cells viability, CellTiter-Fluor, 17.5 h; further: potency means the concentration at half of the fitted maximal effect; nearly all actives have a fitted effect of over 30% in size
Procedure, shortened: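 After 17.5 h of compound exposure at 37 C, ERR cells are incubated with CellTiter-Fluor for 30 min and fluorescence intensity serves as the viability measure.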

[5] = qHTS assay to identify small molecule agonists of the constitutive androstane receptor (CAR) signaling pathway - cell viability counter screen (AID 1224836); details: HepG2-CYP2B6-hCAR viability, CellTiter-Fluor, 23 h; PK11195 added to every well; further: potency means the concentration at half of the fitted maximal effect; nearly all actives have a fitted effect of over 45% in size
Procedure, shortened: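 Double-stable HepG2 hepatoma cells (hCAR plus CYP2B6-2.2kb) are treated for 23 h at 37 C with test compounds in 15-point concentration series. PK11195 at 0.75 uM final is co-added. Cell viability is quantified by CellTiter-Fluor.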

[6] = qHTS assay to identify small molecule antagonists of the estrogen related receptor signaling pathway with the pleiotropic PPARgamma coactivator (PGC) from Tox21 10K library (AID 1224841; call rule not given here; further: potency means the concentration at half of the fitted maximal effect; actives are mostly falling curves and most rising ones were filed inactive; nearly all actives have a fitted effect of over 50% in size); details: PGC/ERR reporter cell line, ONE-Glo luciferase, 18 h
[7] = qHTS assay to identify small molecule agonists of H2AX - cell viability counter screen (AID 1224847; calls by dose curve; further: potency means the concentration at half of the fitted maximal effect; nearly all actives have a fitted effect of over 30% in size); details: CHO-K1 viability, CellTiter-Glo luminescence, 3 h
Procedure, shortened: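 For this counter screen, overnight-attached CHO-K1 cells received test compounds (15 concentrations, 0.76% DMSO final); 3 hr later at 37C, CellTiter-Glo reagent was added and luminescence recorded after 30 min at room temperature.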

[8] = qHTS assay to identify small molecule antagonists of the estrogen related receptor (ERR) signaling pathway from Tox21 library (AID 1224848); details: ERR reporter cell line, luciferase antagonist mode, 18 h; further: potency means the concentration at half of the fitted maximal effect; nearly all actives have a fitted effect of over 50% in size
Procedure, shortened: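 Antagonist-mode screen of the Tox21 10K library in an NTP-provided ERR reporter cell line; 18 h compound exposure at 37 C, luminescence measured with ONE-Glo.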

[9] = qHTS RealTime-Glo MT Cell Viability Assay in HEK293 cells - 32 hour (AID 1224868); details: RealTime-Glo luminescence
Procedure, shortened: (§1)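 HEK293 cells seeded with NanoLuc/prosubstrate reagent, rested 5 h at 37 C, then dosed and kept at 37 C up to 40 h. Nonlytic real-time luminescence from viable cells read at 0, 8, 16, 24, 32 and 40 h.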

[10] = qHTS RealTime-Glo MT Cell Viability Assay in HEK293 cells - 16 hour (AID 1224872); details: RealTime-Glo luminescence
Procedure, shortened: as §1

[11] = qHTS RealTime-Glo MT Cell Viability Assay in HEK293 cells - 40 hour (AID 1224874); details: RealTime-Glo luminescence
Procedure, shortened: (§2)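 Viable HEK293 cells reduce a cell-permeant prosubstrate; the product diffuses out and is consumed by NanoLuc in the medium to give light. Compounds went in after a 5 h incubation and plates were read over the treatment course.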

[12] = qHTS RealTime-Glo MT Cell Viability Assay in HEK293 cells - 0 hour (AID 1224880); details: RealTime-Glo luminescence; further: potency means the concentration at half of the fitted maximal effect; nearly all actives have a fitted effect of over 45% in size
Procedure, shortened: as §2

[13] = qHTS RealTime-Glo MT Cell Viability Assay in HEK293 cells - 24 hour (AID 1224886); details: RealTime-Glo luminescence
Procedure, shortened: as §1

[14] = qHTS assay to identify small molecule antagonists of the sonic hedgehog signaling (Shh) pathway - cell viability counter screen (AID 1259367); details: NIH/3T3 Gli1-Luc viability, CellTiter-Fluor, 24 h; further: potency means the concentration at half of the fitted maximal effect; nearly all actives have a fitted effect of over 55% in size
Procedure, shortened: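 Cells: 3T3 Gli1-Luc, 2,000/well, 4 hr pre-incubation. Compounds in DMSO, then conditioned medium. Incubation 24 hr, 37C, 5% CO2. CellTiter-Fluor at 23 hr, 1 hr, fluorescence.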

[15] = qHTS assay to identify small molecule antagonists of the sonic hedgehog signaling (Shh) pathway (AID 1259369; calls by dose curve; further: potency means the concentration at half of the fitted maximal effect; nearly all actives have a fitted effect of over 45% in size); details: NIH/3T3 Gli1-Luc reporter, Shh antagonist, luminescence 24 h
Procedure, shortened: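 For antagonist detection, the reporter line received test compounds together with conditioned medium, incubated 24hr at 37 C, 5% CO2, then luminescence was recorded following 30min room-temperature luciferase reagent incubation.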

[16] = target: Estrogen receptor beta (Homo sapiens) (UniProt Q92731); test: qHTS assay to identify small molecule agonists of the estrogen receptor beta (ER-beta) signaling pathway (AID 1259377; active means well fitted activation curve with a large enough effect in the signal ratio in the repeat runs, not every such curve was filed as active; inconclusive means weak or mixed curves, or effect the other way; the % refers to the signal ratio; further: potency means the concentration at half of the fitted maximal effect); details: ER-beta-UAS-bla HEK293T, beta-lactamase FRET ratio, 16 h; activation: at 92.4 µM (top of the series)
[17] = target: Estrogen receptor beta (Homo sapiens) (UniProt Q92731); test: qHTS assay to identify small molecule antagonists of the estrogen receptor beta (ER-beta) signaling pathway (AID 1259378; active means well fitted inhibition curve with a large enough effect in the signal ratio in the repeat runs, not every such curve was filed as active; inconclusive means weak or mixed curves, or effect the other way; inactive means no such curve, though single readings can be large or run the other way; the % refers to the signal ratio; further: on the % scale 0 is the no-effect control and ±100 the full control effect); details: ER-beta-UAS-bla HEK293T, beta-lactamase FRET ratio, 16 h; activity, negative = inhibition: at 92.4 µM (top of the series) unless noted
Procedure, shortened: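 Antagonist mode: compounds added to beta-lactamase reporter HEK293T ER-beta-UAS cells stimulated with E2 (1nM final), 16 hr at 37C. LiveBLAzer B/G FRET substrate, 2 hours room temperature, fluorescence read-out.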

[18] = qHTS assay to identify small molecule antagonists of the estrogen receptor beta (ER-beta) signaling pathway - cell viability counter screen (AID 1259382); details: ER-beta-UAS-bla HEK293T viability, CellTiter-Glo luminescence, 16 h; further: potency means the concentration at half of the fitted maximal effect; nearly all actives have a fitted effect of over 55% in size
Procedure, shortened: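 In this multiplexed counter screen, cells were seeded at 2,000 per well in medium with 2% charcoal-stripped FBS and incubated 6 hr before compound and 1nM final E2 were added. Sixteen hours later, ATP-based luminescence reported viability.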

[19] = qHTS assay to identify small molecule agonists of the estrogen receptor alpha (ER-alpha) signaling pathway in the presence of an antagonist - cell viability counter screen (AID 1259386); details: VM7Luc4E2 viability, CellTiter-Fluor fluorescence, 22 h;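 further: potency means the concentration at half of the fitted maximal effect; cells exposed to compounds for 22 h at 37 °C before the viability read; nearly all actives have a fitted effect of over 30% in size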
Procedure, shortened: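 Viability counter screen using VM7Luc4E2 (full-length ER-alpha, four ERE-luciferase). The cells were treated with compounds alongside ICI-182,780 10.0nM for 22hr, and live-cell protease fluorescence was quantified with CellTiter-Fluor.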

[20] = target: Progesterone receptor (Homo sapiens) (UniProt P06401); test: qHTS assay to identify small molecule antagonists of the progesterone receptor (PR) signaling pathway (AID 1346795; active means well fitted inhibition curve with a large enough effect in the signal ratio in the repeat runs, not every such curve was filed as active; inconclusive means weak or mixed curves; the % refers to the signal ratio; further: on the % scale 0 is the no-effect control and ±100 the full control effect); details: PR-UAS-bla HEK293T, beta-lactamase FRET ratio, 16 h; activity change, negative = inhibition: at 92.4 µM (top of the series) unless noted
Procedure, shortened: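 Fluorescence intensity measured 2 hr after adding beta-lactamase FRET substrate to PR-UAS-bla HEK293T cells that had been co-treated 16 hr with compound and 1 nM R5020 (final concentration) in 2% charcoal-stripped FBS.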

[21] = qHTS assay to identify small molecule agonists of the progesterone receptor (PR) signaling pathway - cell viability counter screen (AID 1346799; calls by dose curve; further: potency means the concentration at half of the fitted maximal effect; nearly all actives have a fitted effect of over 45% in size); details: PR-UAS-bla HEK293T viability, CellTiter-Glo luminescence, 16 h
Procedure, shortened: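 In parallel with the beta-lactamase readout, cytotoxicity toward PR-UAS-bla HEK293T cells was measured by CellTiter-Glo luminescence following 16 hr compound incubation in 2% charcoal-stripped FBS medium.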

[22] = qHTS assay to identify small molecule antagonists of the TGF-beta/Smad signaling pathway - cell viability counter screen (AID 1346824); details: SBE-bla HEK293T viability, CellTiter-Glo luminescence
Procedure, shortened: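 Cytotoxicity counter-screen run in the same wells as the beta-lactamase Smad reporter read: CellTiter-Glo luminescence after 30 min at room temperature. HEK 293T SBE-bla cells had 5 hr compound exposure at 37 C with TGF-beta1 (0.25 ng/mL stock).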

[23] = Human pregnane X receptor (PXR) small molecule agonists, qHTS cell viability counter screen (AID 1346977); details: PXR-Luc HepG2 viability, CellTiter-Fluor, 24 h
Procedure, shortened: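 Viability counter screen: CellTiter-Fluor signal in PXR-Luc HepG2 cells, 24hr compound exposure, 37C, 5% CO2.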

[24] = Caspase-3/7 induction in CHO-K1 cells by small molecules, qHTS cell viability counter screen (AID 1346979); details: CellTiter-Fluor fluorescence, 17 h; further: potency means the concentration at half of the fitted maximal effect; nearly all actives have a fitted effect of over 35% in size
Procedure, shortened: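 Viability readout by fluorescence (CellTiter-Fluor) on wild-type CHO-K1 cells exposed for 16hr at 37C and 5% CO2 to compounds delivered in DMSO; reagent incubated 1hr before reading.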

[25] = Caspase-3/7 induction in HepG2 cells by small molecules, qHTS cell viability counter screen (AID 1346981); details: CellTiter-Fluor fluorescence, 17 h; further: potency means the concentration at half of the fitted maximal effect; nearly all actives have a fitted effect of over 30% in size
Procedure, shortened: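 Viability determined by CellTiter-Fluor fluorescence in HepG2 wells also used for the luminescent Caspase-Glo 3/7 read. Compounds were present for 16 hr at 37 C, 5% CO2 before reagent addition.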

Cc1cccc([N+](=O)[O-])c1[N+](=O)[O-]
inconclusive: Potency [1] 18.3 µM | activation [2] 17.5% [at 35.3 µM] | Potency [3] 1.3 µM | Potency [4] 45.8 µM | Potency [5] 18.3 µM | Potency [6] 11.5 µM | Potency [7] 1.2 µM | Potency [8] 36.4 µM | Potency [9] 20.7 µM | Potency [10] 0.462 µM | Potency [11] 8.22 µM | Potency [12] 41.2 µM | Potency [13] 10.4 µM | Potency [14] 36.4 µM | Potency [15] 8.15 µM | Potency [16] 18.3 µM | activity, negative = inhibition [17] -4.12% [at 42.5 µM] | Potency [18] 51.4 µM | Potency [19] 45.8 µM | activity change, negative = inhibition [20] -3.73% [at 42.5 µM] | Potency [21] 0.001 µM | Potency [22] 1.46 µM | Potency [23] 40.9 µM | Potency [24] 48.6 µM | Potency [25] 14.5 µM
